# Source: the supplement of paper PMC7666118
# The chains behind the UniProt entries cited, without tags or fusion partners. Where a name states a change or a piece, a line headed by the entry shows the natural chain unless it says otherwise.
# UniProt Q99598: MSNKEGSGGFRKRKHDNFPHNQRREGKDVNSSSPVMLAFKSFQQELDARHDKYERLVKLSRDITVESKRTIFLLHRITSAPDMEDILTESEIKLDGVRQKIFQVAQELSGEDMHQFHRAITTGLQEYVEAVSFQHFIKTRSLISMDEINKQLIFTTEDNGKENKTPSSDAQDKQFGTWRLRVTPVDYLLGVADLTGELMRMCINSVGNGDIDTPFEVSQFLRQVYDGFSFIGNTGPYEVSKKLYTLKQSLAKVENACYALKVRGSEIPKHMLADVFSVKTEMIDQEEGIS
# UniProt P62328: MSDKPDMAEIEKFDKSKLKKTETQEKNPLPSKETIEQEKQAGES
# UniProt P48553, whole entry: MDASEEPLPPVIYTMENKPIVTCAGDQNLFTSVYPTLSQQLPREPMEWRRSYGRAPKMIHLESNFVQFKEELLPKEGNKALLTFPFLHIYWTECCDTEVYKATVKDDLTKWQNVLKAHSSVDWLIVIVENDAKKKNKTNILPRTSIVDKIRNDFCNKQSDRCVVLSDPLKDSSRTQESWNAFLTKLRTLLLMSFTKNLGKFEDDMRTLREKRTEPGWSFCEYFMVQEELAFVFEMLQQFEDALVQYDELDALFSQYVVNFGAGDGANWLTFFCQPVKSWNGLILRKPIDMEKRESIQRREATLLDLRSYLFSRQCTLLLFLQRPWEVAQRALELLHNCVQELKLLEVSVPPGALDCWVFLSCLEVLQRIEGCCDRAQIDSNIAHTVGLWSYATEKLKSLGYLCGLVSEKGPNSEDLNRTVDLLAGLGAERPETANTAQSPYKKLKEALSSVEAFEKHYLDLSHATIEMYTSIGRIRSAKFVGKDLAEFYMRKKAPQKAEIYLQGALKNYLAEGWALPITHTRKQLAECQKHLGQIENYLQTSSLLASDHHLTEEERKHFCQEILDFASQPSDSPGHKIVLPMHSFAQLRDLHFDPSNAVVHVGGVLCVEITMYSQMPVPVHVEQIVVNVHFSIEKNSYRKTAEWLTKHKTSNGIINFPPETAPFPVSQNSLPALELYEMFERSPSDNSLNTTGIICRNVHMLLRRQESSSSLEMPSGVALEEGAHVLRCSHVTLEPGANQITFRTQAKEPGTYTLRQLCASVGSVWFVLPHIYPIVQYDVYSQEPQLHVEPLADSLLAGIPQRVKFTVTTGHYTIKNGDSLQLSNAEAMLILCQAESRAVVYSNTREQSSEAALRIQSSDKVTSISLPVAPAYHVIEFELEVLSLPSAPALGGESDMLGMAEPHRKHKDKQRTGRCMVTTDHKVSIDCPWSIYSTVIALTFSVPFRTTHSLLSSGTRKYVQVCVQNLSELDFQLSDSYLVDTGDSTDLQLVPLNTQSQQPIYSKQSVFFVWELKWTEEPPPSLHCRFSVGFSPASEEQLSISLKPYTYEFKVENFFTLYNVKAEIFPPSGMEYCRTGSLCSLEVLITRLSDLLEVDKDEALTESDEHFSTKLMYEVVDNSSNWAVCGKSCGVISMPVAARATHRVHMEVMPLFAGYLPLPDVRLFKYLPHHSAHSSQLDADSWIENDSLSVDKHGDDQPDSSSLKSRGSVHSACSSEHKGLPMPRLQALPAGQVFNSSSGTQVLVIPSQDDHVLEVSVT
# UniProt Q9GZZ9, whole entry: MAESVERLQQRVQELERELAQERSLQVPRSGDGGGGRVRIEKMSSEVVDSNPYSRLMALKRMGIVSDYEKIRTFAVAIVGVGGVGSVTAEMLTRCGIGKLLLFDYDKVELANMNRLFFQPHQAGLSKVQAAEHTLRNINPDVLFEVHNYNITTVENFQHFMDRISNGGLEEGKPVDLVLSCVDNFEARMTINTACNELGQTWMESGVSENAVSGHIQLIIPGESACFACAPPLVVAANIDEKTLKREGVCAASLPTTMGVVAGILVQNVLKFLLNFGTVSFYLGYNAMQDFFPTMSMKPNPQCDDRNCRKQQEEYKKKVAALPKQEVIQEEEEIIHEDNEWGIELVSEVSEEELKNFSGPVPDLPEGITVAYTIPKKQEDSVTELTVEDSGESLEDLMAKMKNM
# UniProt Q9Y2S6, whole entry: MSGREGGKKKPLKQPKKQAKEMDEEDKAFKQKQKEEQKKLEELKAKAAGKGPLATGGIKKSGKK
# UniProt Q9Y5R8, whole entry: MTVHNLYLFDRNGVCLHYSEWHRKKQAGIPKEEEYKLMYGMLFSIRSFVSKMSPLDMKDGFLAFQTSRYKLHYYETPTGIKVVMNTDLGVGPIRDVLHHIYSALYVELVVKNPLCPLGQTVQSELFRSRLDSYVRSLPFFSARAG
# UniProt P06753, whole entry: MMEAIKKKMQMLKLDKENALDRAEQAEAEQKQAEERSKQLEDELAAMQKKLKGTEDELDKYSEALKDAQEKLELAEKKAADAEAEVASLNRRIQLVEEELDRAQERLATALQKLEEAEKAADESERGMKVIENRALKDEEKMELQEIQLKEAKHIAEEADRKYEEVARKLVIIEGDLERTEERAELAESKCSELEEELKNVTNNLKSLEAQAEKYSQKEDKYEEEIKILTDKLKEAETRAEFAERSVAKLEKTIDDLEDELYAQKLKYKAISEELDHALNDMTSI
# UniProt Q96S44: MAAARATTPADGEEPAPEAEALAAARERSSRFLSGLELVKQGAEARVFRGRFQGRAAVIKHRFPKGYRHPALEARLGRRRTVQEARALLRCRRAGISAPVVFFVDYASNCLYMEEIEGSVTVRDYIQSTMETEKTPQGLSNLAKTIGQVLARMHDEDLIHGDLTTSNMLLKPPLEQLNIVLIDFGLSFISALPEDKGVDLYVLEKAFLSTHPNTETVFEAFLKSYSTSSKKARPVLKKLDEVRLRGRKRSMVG
# UniProt Q15025: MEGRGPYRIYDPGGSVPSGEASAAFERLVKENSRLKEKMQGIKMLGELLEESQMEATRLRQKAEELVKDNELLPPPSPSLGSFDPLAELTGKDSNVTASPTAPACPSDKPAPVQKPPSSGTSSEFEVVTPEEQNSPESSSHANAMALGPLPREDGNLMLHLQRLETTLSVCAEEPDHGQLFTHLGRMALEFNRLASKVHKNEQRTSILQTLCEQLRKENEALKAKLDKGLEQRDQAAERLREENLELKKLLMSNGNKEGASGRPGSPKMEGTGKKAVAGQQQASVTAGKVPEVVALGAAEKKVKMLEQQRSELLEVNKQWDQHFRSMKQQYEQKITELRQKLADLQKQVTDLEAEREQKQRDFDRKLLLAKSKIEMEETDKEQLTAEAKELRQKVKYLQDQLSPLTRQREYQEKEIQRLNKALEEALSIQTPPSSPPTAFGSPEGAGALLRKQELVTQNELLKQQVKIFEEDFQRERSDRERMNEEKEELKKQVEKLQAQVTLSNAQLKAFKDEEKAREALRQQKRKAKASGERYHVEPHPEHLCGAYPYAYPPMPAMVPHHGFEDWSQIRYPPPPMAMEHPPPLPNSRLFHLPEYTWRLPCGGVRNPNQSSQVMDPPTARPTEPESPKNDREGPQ
# UniProt Q5T6F2: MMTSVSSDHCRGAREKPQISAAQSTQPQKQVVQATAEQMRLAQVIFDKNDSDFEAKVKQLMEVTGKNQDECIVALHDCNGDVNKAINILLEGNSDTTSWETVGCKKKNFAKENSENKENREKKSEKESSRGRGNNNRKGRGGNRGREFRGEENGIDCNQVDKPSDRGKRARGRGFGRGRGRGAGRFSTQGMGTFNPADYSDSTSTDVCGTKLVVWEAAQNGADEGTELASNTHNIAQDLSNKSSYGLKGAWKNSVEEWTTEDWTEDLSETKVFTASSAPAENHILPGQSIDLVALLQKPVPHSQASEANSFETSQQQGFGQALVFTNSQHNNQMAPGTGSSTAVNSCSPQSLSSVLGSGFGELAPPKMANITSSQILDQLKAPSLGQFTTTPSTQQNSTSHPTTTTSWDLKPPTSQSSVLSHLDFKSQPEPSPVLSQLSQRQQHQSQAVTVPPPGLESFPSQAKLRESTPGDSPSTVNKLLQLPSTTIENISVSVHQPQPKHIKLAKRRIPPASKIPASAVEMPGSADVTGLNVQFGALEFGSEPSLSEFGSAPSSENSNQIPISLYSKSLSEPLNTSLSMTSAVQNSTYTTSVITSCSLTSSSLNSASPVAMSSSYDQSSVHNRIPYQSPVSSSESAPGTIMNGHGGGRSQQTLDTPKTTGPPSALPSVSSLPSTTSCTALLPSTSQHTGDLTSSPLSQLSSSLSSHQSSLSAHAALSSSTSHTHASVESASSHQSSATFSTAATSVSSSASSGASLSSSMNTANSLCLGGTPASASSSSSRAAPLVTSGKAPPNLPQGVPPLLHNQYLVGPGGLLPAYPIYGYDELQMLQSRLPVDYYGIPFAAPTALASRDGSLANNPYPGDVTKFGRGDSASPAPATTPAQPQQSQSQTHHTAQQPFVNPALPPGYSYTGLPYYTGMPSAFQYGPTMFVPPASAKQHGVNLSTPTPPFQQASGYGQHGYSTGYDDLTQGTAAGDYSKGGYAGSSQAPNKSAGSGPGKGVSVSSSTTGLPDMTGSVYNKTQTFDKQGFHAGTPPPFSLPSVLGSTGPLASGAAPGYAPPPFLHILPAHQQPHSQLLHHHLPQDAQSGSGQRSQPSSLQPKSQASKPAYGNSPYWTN
# UniProt P57075: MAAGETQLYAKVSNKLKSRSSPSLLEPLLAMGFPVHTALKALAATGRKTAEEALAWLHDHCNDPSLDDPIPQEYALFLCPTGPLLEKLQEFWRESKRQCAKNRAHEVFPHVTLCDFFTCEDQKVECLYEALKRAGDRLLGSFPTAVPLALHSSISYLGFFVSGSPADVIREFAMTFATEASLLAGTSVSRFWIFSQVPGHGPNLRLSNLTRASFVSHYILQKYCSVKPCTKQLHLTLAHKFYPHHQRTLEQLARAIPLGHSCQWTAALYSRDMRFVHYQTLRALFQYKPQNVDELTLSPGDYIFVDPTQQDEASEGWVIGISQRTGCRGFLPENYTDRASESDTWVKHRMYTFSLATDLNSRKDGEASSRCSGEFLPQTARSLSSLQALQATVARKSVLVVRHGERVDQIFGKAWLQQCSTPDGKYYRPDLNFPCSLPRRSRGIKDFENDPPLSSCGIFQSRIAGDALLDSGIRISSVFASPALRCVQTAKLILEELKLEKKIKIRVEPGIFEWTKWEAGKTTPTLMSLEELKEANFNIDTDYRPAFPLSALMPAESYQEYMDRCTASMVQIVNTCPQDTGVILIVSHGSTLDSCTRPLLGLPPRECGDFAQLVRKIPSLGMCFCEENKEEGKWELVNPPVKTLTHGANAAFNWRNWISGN
# UniProt P40222: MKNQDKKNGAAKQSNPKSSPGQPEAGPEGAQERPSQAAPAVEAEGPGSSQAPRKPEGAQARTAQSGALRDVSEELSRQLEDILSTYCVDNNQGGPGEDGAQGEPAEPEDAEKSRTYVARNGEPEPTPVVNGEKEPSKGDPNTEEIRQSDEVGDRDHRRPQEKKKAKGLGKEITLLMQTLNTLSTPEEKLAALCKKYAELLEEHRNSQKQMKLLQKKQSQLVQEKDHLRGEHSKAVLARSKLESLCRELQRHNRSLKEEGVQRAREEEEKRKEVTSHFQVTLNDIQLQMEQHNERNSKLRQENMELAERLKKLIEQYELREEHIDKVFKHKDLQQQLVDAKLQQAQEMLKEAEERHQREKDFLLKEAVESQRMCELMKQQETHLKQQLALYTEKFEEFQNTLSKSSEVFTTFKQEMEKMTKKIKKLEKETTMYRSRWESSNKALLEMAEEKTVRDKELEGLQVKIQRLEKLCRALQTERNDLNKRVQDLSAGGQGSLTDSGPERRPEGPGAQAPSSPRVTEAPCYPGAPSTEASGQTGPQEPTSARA
# UniProt O43399: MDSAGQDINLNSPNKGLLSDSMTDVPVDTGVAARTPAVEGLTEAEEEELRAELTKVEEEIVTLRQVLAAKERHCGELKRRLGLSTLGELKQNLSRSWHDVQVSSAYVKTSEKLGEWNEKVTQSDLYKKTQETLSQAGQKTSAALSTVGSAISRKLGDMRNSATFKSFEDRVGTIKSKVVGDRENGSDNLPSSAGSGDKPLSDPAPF
# UniProt Q6Q0C0: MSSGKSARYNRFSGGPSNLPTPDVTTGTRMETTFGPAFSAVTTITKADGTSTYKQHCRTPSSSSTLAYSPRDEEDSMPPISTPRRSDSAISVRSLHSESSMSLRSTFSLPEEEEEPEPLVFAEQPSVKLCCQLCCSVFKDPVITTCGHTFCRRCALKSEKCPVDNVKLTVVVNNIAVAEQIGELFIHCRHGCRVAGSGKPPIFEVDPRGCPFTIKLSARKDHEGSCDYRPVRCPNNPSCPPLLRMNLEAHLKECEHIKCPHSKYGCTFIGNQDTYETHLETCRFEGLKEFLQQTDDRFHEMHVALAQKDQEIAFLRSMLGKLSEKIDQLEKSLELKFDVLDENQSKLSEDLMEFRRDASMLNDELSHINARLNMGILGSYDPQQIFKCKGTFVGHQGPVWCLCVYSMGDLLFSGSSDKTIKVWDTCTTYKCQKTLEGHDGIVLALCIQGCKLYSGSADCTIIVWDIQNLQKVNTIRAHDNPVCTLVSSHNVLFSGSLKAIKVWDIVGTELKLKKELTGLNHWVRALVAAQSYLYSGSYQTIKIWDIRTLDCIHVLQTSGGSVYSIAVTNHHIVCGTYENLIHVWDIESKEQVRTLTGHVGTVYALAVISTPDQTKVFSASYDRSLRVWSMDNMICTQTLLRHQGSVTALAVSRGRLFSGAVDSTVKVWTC
# The other results are listed elsewhere or left out.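 How the source made its calls: active = dose-dependent thermal stabilisation significant by F-test of dose-response against flat model at 10% FDR; inactive = not significant.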
# Compound: Nc1nc2c(ncn2[C@@H]2O[C@H](COP(=O)(O)OP(=O)(O)OP(=O)(O)O)[C@@H](O)[C@H]2O)c(=O)[nH]1
# Test: dose-dependent thermal stabilisation call (2D-TPP, DLPTP, 10% FDR) (binary (1 = stabilised)); higher = stabilised by the compound
# Settings: system: Jurkat gel-filtered lysate; concentration range 1-500 µM
# Experimental: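 2D thermal proteome profiling in gel-filtered Jurkat E6.1 lysate (2 mg/ml) treated with NaGTP (0, 1, 10, 100, 500 uM) for 10 min at room temperature, then heated 3 min at one of 12 temperatures (42-63.9 C). Soluble protein was quantified by TMT10 MS. The value is the DLPTP call of the paper: dose-dependent thermal stabilisation over all temperatures at 10% FDR (F-test of a dose-response against a flat model); one experiment, one call per tested protein.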
row,Target,dose-dependent thermal stabilisation call
1,TUBGCP6 (UniProt Q96RT7),inactive: 0
2,TSNAX (UniProt Q99598),inactive: 0
3,TCF12 (UniProt Q99081),inactive: 0
4,TBCC (UniProt Q15814),inactive: 0
5,TPP2 (UniProt P29144),inactive: 0
6,TOPBP1 (UniProt Q92547),inactive: 0
7,TMSB4X (UniProt P62328),inactive: 0
8,TBCD (UniProt Q9BTW9),active: 1
9,TRAPPC10 (UniProt P48553),inactive: 0
10,UBA5 (UniProt Q9GZZ9),inactive: 0
11,TTC1 (UniProt Q99614),inactive: 0
12,TLE4 (UniProt Q04727),inactive: 0
13,TBC1D24 (UniProt Q9ULP9),inactive: 0
14,TAX1BP1 (UniProt Q86VP1),inactive: 0
15,TMA7 (UniProt Q9Y2S6),inactive: 0
16,TRAPPC1 (UniProt Q9Y5R8),inactive: 0
17,TSC22D2 (UniProt O75157),inactive: 0
18,TTPAL (UniProt Q9BTX7),inactive: 0
19,TRMT11 (UniProt Q7Z4G4),inactive: 0
20,TRA2B (UniProt P62995),active: 1

row,Target,dose-dependent thermal stabilisation call
1,TPM3 (UniProt P06753),inactive: 0
2,TRMT2A (UniProt Q8IZ69),inactive: 0
3,TRAF2 (UniProt Q12933),inactive: 0
4,TJAP1 (UniProt Q5JTD0),inactive: 0
5,TLK2 (UniProt Q86UE8),inactive: 0
6,TSTD1 (UniProt Q8NFU3),inactive: 0
7,TP53RK (UniProt Q96S44),active: 1
8,TALDO1 (UniProt P37837),inactive: 0
9,TNIP1 (UniProt Q15025),inactive: 0
10,TBC1D5 (UniProt Q92609),inactive: 0
11,TATDN3 (UniProt Q17R31),inactive: 0
12,UBAP2 (UniProt Q5T6F2),inactive: 0
13,THYN1 (UniProt Q9P016),inactive: 0
14,TBC1D22A (UniProt Q8WUA7),inactive: 0
15,UBASH3A (UniProt P57075),inactive: 0
16,TXLNA (UniProt P40222),inactive: 0
17,TPD52L2 (UniProt O43399),inactive: 0
18,TDP1 (UniProt Q9NUW8),inactive: 0
19,TRAF7 (UniProt Q6Q0C0),inactive: 0
20,TTN (UniProt Q8WZ42),inactive: 0

# As a short view, part of the list above:
row,Target,dose-dependent thermal stabilisation call
15,UBASH3A (UniProt P57075),inactive: 0
16,TXLNA (UniProt P40222),inactive: 0
17,TPD52L2 (UniProt O43399),inactive: 0
